Laboratory results: PubChem BioAssay AID652272 (Drosophila RNAi Screening Center, 2013)

Screen: 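Genes whose knock-down decreases or increases Hedgehog reporter output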 (primary screen)
Cell system: Drosophila clone 8 (Cl8) cells
Knock-down reagent: long dsRNA against Drosophila genes
Read-out: 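Firefly light from a Hedgehog-responsive ptc promoter reporter and Renilla reference light, both read on a plate reader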
Reading the numbers: firefly Hh reporter signal: higher = more ptc reporter light; Renilla reference signal: higher = more Renilla control light
Active means: 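Called a hit if the two-replicate mean z-score lies below -2 or above +3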
Calls: active = hit: reporter lowered or raised; inactive = not a hit
In all, the deposit lists about 21,000 reagents; below is a random part of those that have a named target and a result. Of all reagents, 503 (2.4%) are marked active. 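Raw plate light values, not normalised; calls rest on replicate z-scores that were not deposited; hits include reporter decreases as well as increases.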 The record does not give: the amount of reagent, the time to read-out.

AMPdeam [DRSC18996] | firefly Hh reporter signal, replicate 1 = 8.93e5; firefly Hh reporter signal, replicate 2 = 2.88e5; Renilla reference signal, replicate 1 = 50672; Renilla reference signal, replicate 2 = 8123; Outcome = inactive
AMPdeam [DRSC19366] | firefly Hh reporter signal, replicate 1 = 86323; firefly Hh reporter signal, replicate 2 = 70448; Renilla reference signal, replicate 1 = 1922; Renilla reference signal, replicate 2 = 1590; Outcome = inactive
AMPdeam [DRSC19368] | firefly Hh reporter signal, replicate 1 = 1.46e5; firefly Hh reporter signal, replicate 2 = 2.64e5; Renilla reference signal, replicate 1 = 5073; Renilla reference signal, replicate 2 = 12205; Outcome = inactive
AMPdeam [DRSC19727] | firefly Hh reporter signal, replicate 1 = 1.14e5; firefly Hh reporter signal, replicate 2 = 2.38e5; Renilla reference signal, replicate 1 = 2896; Renilla reference signal, replicate 2 = 10914; Outcome = inactive
yellow-f2 [DRSC16372] | firefly Hh reporter signal, replicate 1 = 1.56e5; firefly Hh reporter signal, replicate 2 = 1.32e5; Renilla reference signal, replicate 1 = 5069; Renilla reference signal, replicate 2 = 5530; Outcome = inactive
Bre1 [DRSC09742] | firefly Hh reporter signal, replicate 1 = 1.29e5; firefly Hh reporter signal, replicate 2 = 1.54e5; Renilla reference signal, replicate 1 = 4147; Renilla reference signal, replicate 2 = 5920; Outcome = inactive
CG31460 [DRSC14370] | firefly Hh reporter signal, replicate 1 = 82787; firefly Hh reporter signal, replicate 2 = 57708; Renilla reference signal, replicate 1 = 3476; Renilla reference signal, replicate 2 = 2464; Outcome = inactive
ddbt [DRSC07869] | firefly Hh reporter signal, replicate 1 = 1.13e5; firefly Hh reporter signal, replicate 2 = 2.76e5; Renilla reference signal, replicate 1 = 3024; Renilla reference signal, replicate 2 = 11440; Outcome = inactive
CG13054 [DRSC09935] | firefly Hh reporter signal, replicate 1 = 95365; Renilla reference signal, replicate 1 = 3236; Renilla reference signal, replicate 2 = 3176; Outcome = inactive

The list goes on (2 carried over from the part before).
ddbt [DRSC07869] | firefly Hh reporter signal, replicate 1 = 1.13e5; firefly Hh reporter signal, replicate 2 = 2.76e5; Renilla reference signal, replicate 1 = 3024; Renilla reference signal, replicate 2 = 11440; Outcome = inactive
CG13054 [DRSC09935] | firefly Hh reporter signal, replicate 1 = 95365; Renilla reference signal, replicate 1 = 3236; Renilla reference signal, replicate 2 = 3176; Outcome = inactive
CG9632 [DRSC16528] | firefly Hh reporter signal, replicate 1 = 83079; firefly Hh reporter signal, replicate 2 = 98464; Renilla reference signal, replicate 1 = 2011; Renilla reference signal, replicate 2 = 2629; Outcome = inactive
Arp6 [DRSC19326] | firefly Hh reporter signal, replicate 1 = 1.16e5; firefly Hh reporter signal, replicate 2 = 1.02e5; Renilla reference signal, replicate 1 = 2832; Renilla reference signal, replicate 2 = 2219; Outcome = inactive
CG31077 [DRSC13805] | firefly Hh reporter signal, replicate 1 = 52106; firefly Hh reporter signal, replicate 2 = 1.63e5; Renilla reference signal, replicate 1 = 14700; Renilla reference signal, replicate 2 = 4876; Outcome = inactive
gogo [DRSC10070] | firefly Hh reporter signal, replicate 1 = 83245; firefly Hh reporter signal, replicate 2 = 96464; Renilla reference signal, replicate 1 = 3188; Renilla reference signal, replicate 2 = 2726; Outcome = inactive
gogo [DRSC10071] | firefly Hh reporter signal, replicate 1 = 89014; firefly Hh reporter signal, replicate 2 = 86129; Renilla reference signal, replicate 1 = 3108; Renilla reference signal, replicate 2 = 2834; Outcome = inactive
